For at least one entry, the source does not settle the construct or the ends of the probe. Where cells or extracts were used, other partners may take part. For part of these data: Negatives hold for the conditions tested.

Series [1] deals with E2F (endogenous E2F protein in cell extract). The series can be described thus: EMSA. Conditions: 4 C, 20 min, protein in an extract, label: 32P.
For series [2] the test system is unchanged. Kind of series: competition with a labelled probe. The settings on record: 100x unlabeled shuffled duplex did not compete the complex; protein in an extract; variant of SEQ ID NO:1 E2F decoy.

Turning to “GCTTTCCCGCCAAATTTCGCGCGAAAGC (double strand) [SEQ ID NO:3 E2F decoy]”, the binding result in series [1] (complex abolished by 100x unlabeled same sequence) is “binds”. Take “TTTGGCGCTTTCGCGCTTTCCCGC (double strand) [SEQ ID NO:1 E2F decoy]”: the binding result in series [1] (complex abolished by 100x unlabeled SEQ ID NO:1 or 3) is recorded as “binds”. Turning to “GGTGTCTCGGTCTCTCCGTCTCTC (double strand) [SEQ ID NO:4 shuffled]”, the binding result in series [2] is recorded as “no binding”.

Source of the values: US6034234.
